Reference: the supplement of paper PMC10470496
Counter-ions that a name gives are not always drawn. Some of the results follow. Many values rest on one well or one pass, so single values are uncertain.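 Three clinical Candida auris isolates (clades III, IV and I) from the CDC resistance isolate bank were grown in RPMI-1640 at 35°C. Growth was background-corrected OD600 relative to same-plate vehicle-only wells. Hits required over 50% inhibition in at least two strains and a plate-corrected B-score above 0.1.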

Key:
Assay in all cases: growth relative to vehicle control (OD600 ratio) (fraction); higher = less inhibition
Settings in all cases: 24 h
C. auris AR-384 = test system: C. auris AR-384
C. auris AR-386 = test system: C. auris AR-386
C. auris AR-387 = test system: C. auris AR-387

SMILES	growth (C. auris AR-384; 1 µM)	growth (C. auris AR-384; 10 µM)	growth (C. auris AR-386; 1 µM)	growth (C. auris AR-386; 10 µM)	growth (C. auris AR-387; 1 µM)	growth (C. auris AR-387; 10 µM)
C[C@H](N)[C@H](O)c1cccc(O)c1 [Metaraminol Bitartrate]	1.22	1	0.88	1.2	1.02	1.07
C1=N/C2=N/c3ccc(OCCN4CCCC4)c(c3)COC/C=C/COCc3cccc(c3)C(=C1)N2 [Pacritinib (SB1518)]	0.82	0.76	0.85	0.61	0.82	0.98
O=C1CCC(N2C(=O)c3ccccc3C2=O)C(=O)N1 (configuration not stated) [Thalidomide]	0.98	1.2	1.4	1.09	1.02	1.08
N#C/C(=C1/SC[C@@H](c2ccc(Cl)cc2Cl)S1)n1ccnc1 [Luliconazole]	0.85	0.68	1.23	0.68	0.65	0.14
OC[C@@H](O)CN1CCN(c2ccccc2)CC1 [Levodropropizine]	0.75	0.87	0.8	0.95	0.88	0.85
COc1cc(C2Oc3cc([C@H]4Oc5cc(O)cc(O)c5C(=O)[C@@H]4O)ccc3OC2CO)ccc1O (some centres not stated) [Silibinin]	0.9	0.71	0.97	1.38	0.9	0.64
COCC(=O)Nc1c(I)c(C(=O)NCC(O)CO)c(I)c(C(=O)N(C)CC(O)CO)c1I (configuration not stated) [Iopromide]	0.83	0.84	0.78	0.68	1.04	1.07
CN(CCOc1ccc(CC2SC(=O)NC2=O)cc1)c1ccccn1 (configuration not stated) [Rosiglitazone maleate]	1.2	1.31	1.23	1.19	1.09	1.09
C[N+](C)(C)CCO.[Cl-] [Choline Chloride]	0.9	1.26	0.94	1.17	1.08	1.04
COc1ccc(C(=O)c2ccccc2O)c(O)c1 [2,2′-Dihydroxy-4-methoxybenzophenone]	0.83	0.65	0.72	0.61	0.67	0.6
CN1CCOC(c2ccccc2)c2ccccc2C1 (configuration not stated) [Nefopam HCl]	0.52	0.49	0.72	0.85	0.73	0.72
CNCc1cc(-c2ccccc2F)n(S(=O)(=O)c2cccnc2)c1 [Vonoprazan Fumarate (TAK-438)]	0.84	0.86	0.94	1	0.92	1.14
COCCCOc1ccnc(C[S+]([O-])c2nc3ccccc3[nH]2)c1C (configuration not stated) [Rebeprazole sodium]	0.89	0.75	0.76	0.67	0.68	0.7
NC[C@H]1CC[C@H](C(=O)O)CC1 [Tranexamic Acid]	1.4	1.26	1.08	1.33	1.21	1.11
O=C1NCC2(CCN(CCc3ccccc3)CC2)O1 [Fenspiride HCl]	1.04	1.12	1.35	1.24	1.34	1.39
Cc1ccc(NC(=O)c2ccc(CN3CCN(C)CC3)cc2)cc1Nc1nccc(-c2cccnc2)n1 [Imatinib (STI571)]	0.89	1.06	1.21	1.06	1.09	0.95
CCn1cc(C(=O)O)c(=O)c2cnc(N3CCCC3)nc21 [Piromidic Acid]	0.92	0.65	0.82	0.56	0.52	0.61
COc1ccccc1OCC(O)CN1CCN(CC(=O)Nc2c(C)cccc2C)CC1 (configuration not stated) [Ranolazine 2HCl]	0.84	0.63	0.77	0.7	0.7	0.64
CC(=O)N1CCN(c2ccc(OCC3COC(Cn4ccnc4)(c4ccc(Cl)cc4Cl)O3)cc2)CC1 (configuration not stated) [Ketoconazole]	0.41	0.86	0.52	0.04	0.04	0.04
CCOC(=O)[C@H](CCc1ccccc1)N[C@@H](C)C(=O)N1CCC[C@H]1C(=O)O [Enalapril Maleate]	1.17	1.25	0.84	1.18	1.21	1.06
CCCCC(=O)N(Cc1ccc(-c2ccccc2-c2nn[nH]n2)cc1)C(C(=O)O)C(C)C.CCOC(=O)C(C)CC(Cc1ccc(-c2ccccc2)cc1)NC(=O)CCC(=O)O (configuration not stated) [Sacubitril/valsartan (LCZ696)]	0.85	0.91	0.81	0.83	0.96	0.97
S=c1[nH]cnc2nc[nH]c12 [Mercaptopurine (6-MP)]	0.96	1.37	1.25	1	1.19	1.27
Cn1cc(C(=O)[C@@H]2CCc3[nH]cnc3C2)c2ccccc21 [Ramosetron Hydrochloride]	0.97	0.6	0.91	0.68	0.77	0.59
C[C@]12C=CC(=O)C=C1CC[C@@H]1[C@@H]2C(=O)C[C@@]2(C)[C@H]1CC[C@]2(O)C(=O)CO [Prednisone]	1.29	0.74	0.98	1.06	1	1.01
CC(C)[C@H]1CC[C@H](C(=O)N[C@H](Cc2ccccc2)C(=O)O)CC1 [Nateglinide]	0.65	0.92	0.86	0.63	0.71	0.71
CC(=O)N[C@H]1[C@H]([C@H](O)[C@H](O)CO)OC(C(=O)O)=C[C@@H]1NC(=N)N [Zanamivir]	1.28	1.16	1.03	1.19	1.12	1.24
CCCCc1oc2ccc(NS(C)(=O)=O)cc2c1C(=O)c1ccc(OCCCN(CCCC)CCCC)cc1 [Dronedarone HCl]	0.7	1.06	0.7	1.08	1	1.18

Sorted by SMILES length (ascending): some entries from above
SMILES	growth (C. auris AR-384; 1 µM)	growth (C. auris AR-384; 10 µM)	growth (C. auris AR-386; 1 µM)	growth (C. auris AR-386; 10 µM)	growth (C. auris AR-387; 1 µM)	growth (C. auris AR-387; 10 µM)
O=C1NCC2(CCN(CCc3ccccc3)CC2)O1 [Fenspiride HCl]	1.04	1.12	1.35	1.24	1.34	1.39
O=C1CCC(N2C(=O)c3ccccc3C2=O)C(=O)N1 (configuration not stated) [Thalidomide]	0.98	1.2	1.4	1.09	1.02	1.08
COCCCOc1ccnc(C[S+]([O-])c2nc3ccccc3[nH]2)c1C (configuration not stated) [Rebeprazole sodium]	0.89	0.75	0.76	0.67	0.68	0.7
